Laboratory results reported in ChEMBL document CHEMBL1165867, “Synthesis, structure and structure-activity relationship analysis of caffeic acid amides as potential antimicrobials” (2010).

Experiments:
Assay in all cases: microbe, parasite or virus in culture
Type in all cases: functional
Candida albicans = details: ATCC 10231, 48 h
Pseudomonas fluorescens = details: ATCC 13525, 24 h
Bacillus subtilis = details: ATCC 6633, 24 h
Staphylococcus aureus = details: ATCC 6538, 24 h

Measured: MIC

O=C(/C=C/c1ccc(O)cc1)Nc1ccccc1 [4-HYDROXY-CINNAMANILIDE]
> 50 µg/mL: all assays above
